{
  "sequences": {"note": "Sequences of proteins named here, by UniProt entry; tags and fusion partners are left off. Residues count along the entry.", "UniProt Q8IUC6": "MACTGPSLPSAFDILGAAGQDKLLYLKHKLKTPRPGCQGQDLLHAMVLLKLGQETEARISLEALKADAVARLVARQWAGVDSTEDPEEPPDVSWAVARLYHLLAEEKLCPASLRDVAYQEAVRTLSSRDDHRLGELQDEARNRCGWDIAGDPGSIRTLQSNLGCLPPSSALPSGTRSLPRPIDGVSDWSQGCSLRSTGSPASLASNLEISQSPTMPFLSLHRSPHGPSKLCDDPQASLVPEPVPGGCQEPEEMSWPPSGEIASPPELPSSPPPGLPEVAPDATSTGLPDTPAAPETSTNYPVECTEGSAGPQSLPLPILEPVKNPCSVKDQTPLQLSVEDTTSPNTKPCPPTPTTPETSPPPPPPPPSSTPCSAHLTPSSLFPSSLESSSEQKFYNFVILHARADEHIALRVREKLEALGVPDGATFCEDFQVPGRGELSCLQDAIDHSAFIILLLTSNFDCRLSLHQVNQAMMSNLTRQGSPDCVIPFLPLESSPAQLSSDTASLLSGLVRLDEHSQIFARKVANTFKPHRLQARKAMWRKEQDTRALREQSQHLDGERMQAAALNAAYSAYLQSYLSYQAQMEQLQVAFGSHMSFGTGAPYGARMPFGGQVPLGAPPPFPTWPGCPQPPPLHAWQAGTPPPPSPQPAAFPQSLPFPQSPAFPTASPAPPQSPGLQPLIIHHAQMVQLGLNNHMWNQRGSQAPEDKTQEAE", "UniProt Q99IB8, residues 1716-1976": "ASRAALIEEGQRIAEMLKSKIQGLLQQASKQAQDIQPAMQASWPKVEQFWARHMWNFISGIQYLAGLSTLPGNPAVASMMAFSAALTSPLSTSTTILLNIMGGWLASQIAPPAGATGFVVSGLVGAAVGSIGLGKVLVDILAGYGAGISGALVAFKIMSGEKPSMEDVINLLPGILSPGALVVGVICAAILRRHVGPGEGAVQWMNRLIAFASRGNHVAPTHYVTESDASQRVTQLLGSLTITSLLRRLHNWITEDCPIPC"},
  "source": "paper PMC5983870",
  "target": "TIR-domain-containing adaptor protein including IFN-β (TRIF) (UniProt Q8IUC6)",
  "assay": "co-IP; told only in one sentence of the discussion; no figure, no methods, cells and constructs not described",
  "note": "These are yes or no findings as the source states them, for the method shown. In cells and extracts the contact can be indirect.",
  "data": [
    {"substance": "Hepatitis C virus NS4B protein (from UniProt Q99IB8 1716-1976)", "values": [
      {"measurement": "binding", "result": "no binding"}
    ]}
  ]
}
